In PMC11124525, “Pharmacokinetic–Pharmacodynamic Correlation Analysis of Rhodiola crenulata in Rats with Myocardial Ischemia” (Pharmaceuticals, 2024):

Columns and labels:
[1] = tested on: AST; experiment: PK-PD sigmoid-Emax model, PD index AST in MDG rats; type: in vivo, SD rats; details: shape factor
[2] = tested on: SOD; experiment: PK-PD sigmoid-Emax model, PD index SOD in MDG rats; type: in vivo, SD rats; details: shape factor

| SMILES | γ [1] | γ [2] |
| --- | --- | --- |
| O=c1c(O)c(-c2ccc(O)cc2)oc2cc(O)cc(O)c12 [Kaempferol, kaempferol] | 0.451 | 0.995 |
| O=C(O)c1cc(O)c(O)c(O)c1 [Gallic Acid, gallic acid] | 0.208 | 0.01 |
| OC[C@H]1O[C@@H](OCCc2ccc(O)cc2)[C@H](O)[C@@H](O)[C@@H]1O [Salidroside, salidroside] | 0.233 | 0 |
| OCCc1ccc(O)cc1 [Tyrosol, tyrosol] | 0.38 | 0.078 |

Some results come without the dose or concentration used.
